Assay results: paper doi:10.1101/2021.03.28.437237
No constants are given. Whether binding was seen depends on the method and setting. In cells and extracts the contact can be indirect. Here binding means that the protein was enriched with, or labelled near, the bait; the list need not be complete. Tags and fused reporters may be left off the sequences shown.

Chains of the proteins cited; added tags and fusions are not shown.
UniProt Q92793: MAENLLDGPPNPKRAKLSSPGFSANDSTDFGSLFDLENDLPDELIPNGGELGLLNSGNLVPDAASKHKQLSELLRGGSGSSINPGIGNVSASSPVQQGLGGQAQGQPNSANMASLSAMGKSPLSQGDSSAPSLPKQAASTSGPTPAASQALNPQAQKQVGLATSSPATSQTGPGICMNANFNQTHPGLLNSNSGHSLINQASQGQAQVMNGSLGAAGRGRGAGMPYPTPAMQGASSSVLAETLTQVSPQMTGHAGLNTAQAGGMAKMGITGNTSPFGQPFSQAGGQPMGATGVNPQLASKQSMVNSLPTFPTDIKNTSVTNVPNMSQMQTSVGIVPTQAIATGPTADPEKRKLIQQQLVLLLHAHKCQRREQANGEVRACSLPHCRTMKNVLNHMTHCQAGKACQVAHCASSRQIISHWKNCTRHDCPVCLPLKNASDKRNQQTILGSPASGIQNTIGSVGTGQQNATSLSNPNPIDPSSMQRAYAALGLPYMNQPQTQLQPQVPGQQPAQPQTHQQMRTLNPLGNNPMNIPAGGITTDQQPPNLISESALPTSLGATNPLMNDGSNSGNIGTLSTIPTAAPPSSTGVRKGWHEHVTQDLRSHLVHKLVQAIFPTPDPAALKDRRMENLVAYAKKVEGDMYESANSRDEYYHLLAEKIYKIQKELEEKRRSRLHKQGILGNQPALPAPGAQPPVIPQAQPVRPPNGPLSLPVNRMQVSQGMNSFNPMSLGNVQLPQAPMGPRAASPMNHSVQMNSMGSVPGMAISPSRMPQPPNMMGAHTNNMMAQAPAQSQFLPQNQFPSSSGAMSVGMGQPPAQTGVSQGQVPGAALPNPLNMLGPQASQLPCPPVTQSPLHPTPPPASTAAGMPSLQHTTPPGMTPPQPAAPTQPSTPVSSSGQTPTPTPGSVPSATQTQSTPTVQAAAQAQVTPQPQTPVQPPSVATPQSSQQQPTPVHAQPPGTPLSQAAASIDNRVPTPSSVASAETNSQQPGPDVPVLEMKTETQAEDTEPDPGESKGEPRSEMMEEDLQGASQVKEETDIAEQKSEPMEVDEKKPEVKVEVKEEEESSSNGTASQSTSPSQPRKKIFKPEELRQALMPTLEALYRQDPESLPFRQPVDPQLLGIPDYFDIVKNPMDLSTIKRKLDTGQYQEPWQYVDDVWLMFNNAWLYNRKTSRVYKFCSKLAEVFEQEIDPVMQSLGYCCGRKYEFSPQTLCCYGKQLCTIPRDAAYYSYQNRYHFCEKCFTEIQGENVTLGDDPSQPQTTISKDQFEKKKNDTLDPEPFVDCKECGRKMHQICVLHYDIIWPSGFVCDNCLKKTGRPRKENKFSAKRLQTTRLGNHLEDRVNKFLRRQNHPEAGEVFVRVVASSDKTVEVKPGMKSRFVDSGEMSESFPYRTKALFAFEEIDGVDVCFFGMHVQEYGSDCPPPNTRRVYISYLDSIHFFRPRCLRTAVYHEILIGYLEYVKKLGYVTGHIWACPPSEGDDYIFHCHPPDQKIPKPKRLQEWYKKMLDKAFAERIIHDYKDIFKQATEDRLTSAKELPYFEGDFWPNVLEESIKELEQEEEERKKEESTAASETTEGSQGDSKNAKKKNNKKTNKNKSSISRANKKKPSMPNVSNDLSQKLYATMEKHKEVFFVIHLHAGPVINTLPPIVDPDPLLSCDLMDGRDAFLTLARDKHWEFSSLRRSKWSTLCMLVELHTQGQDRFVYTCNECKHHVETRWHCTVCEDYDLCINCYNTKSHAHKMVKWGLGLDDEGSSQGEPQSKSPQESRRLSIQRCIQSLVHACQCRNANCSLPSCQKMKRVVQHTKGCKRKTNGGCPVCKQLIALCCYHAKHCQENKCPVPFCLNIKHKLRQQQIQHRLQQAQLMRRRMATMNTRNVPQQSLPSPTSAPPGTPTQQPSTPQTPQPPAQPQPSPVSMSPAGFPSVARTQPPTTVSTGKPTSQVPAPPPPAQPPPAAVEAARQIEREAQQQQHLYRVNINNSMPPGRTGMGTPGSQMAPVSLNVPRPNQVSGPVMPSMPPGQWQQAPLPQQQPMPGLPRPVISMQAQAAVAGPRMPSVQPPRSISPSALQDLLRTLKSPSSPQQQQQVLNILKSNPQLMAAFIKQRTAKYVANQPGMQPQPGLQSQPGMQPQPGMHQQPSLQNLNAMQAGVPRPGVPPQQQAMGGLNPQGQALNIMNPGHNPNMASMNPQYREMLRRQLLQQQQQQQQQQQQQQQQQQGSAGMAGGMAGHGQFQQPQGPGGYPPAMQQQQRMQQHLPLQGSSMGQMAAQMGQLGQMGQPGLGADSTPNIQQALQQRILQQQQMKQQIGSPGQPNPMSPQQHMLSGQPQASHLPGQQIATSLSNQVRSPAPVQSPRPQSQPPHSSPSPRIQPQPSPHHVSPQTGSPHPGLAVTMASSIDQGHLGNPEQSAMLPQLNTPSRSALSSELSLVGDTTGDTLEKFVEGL
UniProt P67809: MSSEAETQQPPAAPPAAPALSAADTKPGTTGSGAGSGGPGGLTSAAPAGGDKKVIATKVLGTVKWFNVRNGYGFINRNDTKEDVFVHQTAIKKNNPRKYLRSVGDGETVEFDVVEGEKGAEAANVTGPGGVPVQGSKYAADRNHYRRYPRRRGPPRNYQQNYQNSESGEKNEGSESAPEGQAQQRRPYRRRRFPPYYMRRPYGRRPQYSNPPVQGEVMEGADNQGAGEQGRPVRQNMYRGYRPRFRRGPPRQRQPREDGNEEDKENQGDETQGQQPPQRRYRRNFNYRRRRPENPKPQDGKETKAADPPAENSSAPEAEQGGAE

Molecular target: T1, wild-type FOXN1 (human), FLAG-tagged (human) (UniProt O15353)
T1 sequence: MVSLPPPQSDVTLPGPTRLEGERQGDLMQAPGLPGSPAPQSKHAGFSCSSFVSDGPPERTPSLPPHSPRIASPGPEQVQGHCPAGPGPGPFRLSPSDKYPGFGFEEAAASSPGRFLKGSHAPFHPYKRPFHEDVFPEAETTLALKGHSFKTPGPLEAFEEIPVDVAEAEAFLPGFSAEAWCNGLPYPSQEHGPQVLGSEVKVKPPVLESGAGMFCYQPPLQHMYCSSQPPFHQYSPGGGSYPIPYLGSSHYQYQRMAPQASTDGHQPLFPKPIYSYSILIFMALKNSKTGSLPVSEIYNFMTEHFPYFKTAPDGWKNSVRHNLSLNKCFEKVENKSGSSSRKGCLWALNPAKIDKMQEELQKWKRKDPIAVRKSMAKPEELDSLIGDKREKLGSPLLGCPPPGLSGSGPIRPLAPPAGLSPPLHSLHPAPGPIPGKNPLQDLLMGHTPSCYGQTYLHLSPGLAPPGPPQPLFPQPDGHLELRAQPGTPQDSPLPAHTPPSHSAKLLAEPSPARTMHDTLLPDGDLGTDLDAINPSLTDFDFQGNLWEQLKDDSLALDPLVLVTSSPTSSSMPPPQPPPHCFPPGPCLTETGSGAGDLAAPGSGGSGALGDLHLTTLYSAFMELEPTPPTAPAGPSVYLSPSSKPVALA
Test: affinity purification with mass spectrometry

Substance	binding
Creb Binding Protein (CBP) (from UniProt Q92793 1-2442)	binds
Y-box binding protein 1 (YBX1) (from UniProt P67809 1-324)	binds
